Source: article PMC4558565
These are yes or no findings as the source states them, for the method shown. A result given as binding can be weak or reduced; the word gives no strength. Where a sequence is shown, tags or fusion partners need not be part of it.

B1: bZIP63 (yeast two-hybrid fusion) (protein, UniProt B9DGI8 1-314)
chain: MEKVFSDEEISGNHHWSVNGMTSLNRSASEWAFNRFIQESSAAADDGESTTACGVSVSSPPNVPVDSEEYRAFLKSKLNLACAAVAMKRGTFIKPQDTSGRSDNGGANESEQASLASSKATPMMSSAITSGSELSGDEEEADGETNMNPTNVKRVKRMLSNRESARRSRRRKQAHLSELETQVSQLRVENSKLMKGLTDVTQTFNDASVENRVLKANIETLRAKVKMAEETVKRLTGFNPMFHNMPQIVSTVSLPSETSNSPDTTSSQVTTPEIISSGNKGKALIGCKMNRTASMRRVESLEHLQKRIRSVGDQ
B2: bZIP63 (protoplast two-hybrid fusion) (protein, UniProt B9DGI8 1-314)
chain: B1 chain
B3: bZIP11 (protoplast two-hybrid fusion) (protein, UniProt O65683 1-159)
chain: MESSSSGTTSSTIQTSSGSEESLMEQRKRKRMLSNRESARRSRMKKQKLLDDLTAQVNHLKKENTEIVTSVSITTQHYLTVEAENSVLRAQLDELNHRLQSLNDIIEFLDSSNNNNNNNMGMCSNPLVGLECDDFFVNQMNMSYIMNQPLMASSDALMY

Columns and labels:
[1] = molecular target: AKINβ2 (LexA-BD yeast two-hybrid fusion) (Arabidopsis thaliana); assay: two-hybrid; yeast strain L40; LexA-BD fusions (pBTM117) as baits, GAL4-AD-bZIP63 (pACTIIJ) as prey; lacZ reporter read with ONPG in cell extracts; auto-activation measured with empty pACTIIJ
[2] = molecular target: BD-bZIP63 with one of the C-terminal sites mutated to alanine (protoplast two-hybrid) (Arabidopsis thaliana) (UniProt B9DGI8); assay: two-hybrid; protoplast two-hybrid (P2H) in Arabidopsis leaf protoplasts; GAL4-AD and GAL4-BD fusions, GAL-UAS4::GUS reporter normalised to 35S::NAN; without and with co-transformation of AKIN10; 16 hr

Binder	binding [1]	binding [2]
B1	binds weakly	–
B2	–	binds
B3	–	binds
